Results are given in words; binding and its absence hold for the method and conditions named. In cells and extracts the contact can be indirect. Some binding calls cover weakened binding; strength is not graded here. For some of these results: Sequences can lack the tags named with a protein. Values belong to the binder of their own block, whether it stands above or below them.
Columns and labels:
Assay in all cases: anti-FLAG co-IP, LC-MS/MS
[1] = molecular target: T1, Bck1 (Saccharomyces cerevisiae) (UniProt Q01389)
T1 sequence (looked up): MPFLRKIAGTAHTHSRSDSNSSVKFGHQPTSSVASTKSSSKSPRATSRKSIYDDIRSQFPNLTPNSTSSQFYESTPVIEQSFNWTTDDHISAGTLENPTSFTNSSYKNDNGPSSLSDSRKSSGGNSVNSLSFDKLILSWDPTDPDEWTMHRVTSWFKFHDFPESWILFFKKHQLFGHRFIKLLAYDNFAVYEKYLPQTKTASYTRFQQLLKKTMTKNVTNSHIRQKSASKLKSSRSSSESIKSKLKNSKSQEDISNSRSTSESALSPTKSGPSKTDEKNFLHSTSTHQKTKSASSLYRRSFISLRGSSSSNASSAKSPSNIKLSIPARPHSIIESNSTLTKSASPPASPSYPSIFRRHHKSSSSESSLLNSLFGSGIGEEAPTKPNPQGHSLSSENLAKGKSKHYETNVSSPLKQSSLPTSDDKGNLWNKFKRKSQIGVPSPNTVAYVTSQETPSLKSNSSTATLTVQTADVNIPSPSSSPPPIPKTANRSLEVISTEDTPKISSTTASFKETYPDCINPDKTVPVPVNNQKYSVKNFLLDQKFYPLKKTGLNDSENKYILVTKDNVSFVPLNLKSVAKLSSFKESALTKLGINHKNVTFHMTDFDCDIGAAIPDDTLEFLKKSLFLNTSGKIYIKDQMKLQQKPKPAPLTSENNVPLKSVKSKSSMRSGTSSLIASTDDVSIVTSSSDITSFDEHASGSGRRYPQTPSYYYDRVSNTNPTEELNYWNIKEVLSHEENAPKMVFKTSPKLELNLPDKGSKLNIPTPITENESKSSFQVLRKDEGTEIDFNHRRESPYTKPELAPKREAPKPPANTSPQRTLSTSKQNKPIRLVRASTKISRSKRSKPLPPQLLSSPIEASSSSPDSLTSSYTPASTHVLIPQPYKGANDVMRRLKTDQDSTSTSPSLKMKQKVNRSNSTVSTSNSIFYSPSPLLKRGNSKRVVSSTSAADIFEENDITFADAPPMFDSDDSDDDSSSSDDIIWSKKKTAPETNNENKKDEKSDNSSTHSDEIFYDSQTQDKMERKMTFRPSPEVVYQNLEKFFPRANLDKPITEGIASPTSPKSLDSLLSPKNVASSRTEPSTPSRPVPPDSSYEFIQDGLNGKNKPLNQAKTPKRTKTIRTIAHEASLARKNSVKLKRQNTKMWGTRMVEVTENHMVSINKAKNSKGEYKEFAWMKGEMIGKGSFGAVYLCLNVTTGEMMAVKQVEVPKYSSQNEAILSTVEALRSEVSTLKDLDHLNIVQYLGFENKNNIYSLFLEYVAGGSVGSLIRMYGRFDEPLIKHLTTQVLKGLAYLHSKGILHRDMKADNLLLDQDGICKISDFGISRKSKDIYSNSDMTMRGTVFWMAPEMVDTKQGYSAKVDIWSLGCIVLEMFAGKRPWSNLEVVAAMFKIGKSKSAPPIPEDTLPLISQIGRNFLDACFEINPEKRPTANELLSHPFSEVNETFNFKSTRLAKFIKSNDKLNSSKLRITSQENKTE

By UniProt entry, the sequences of proteins in these tests, tags left out.
UniProt P32481: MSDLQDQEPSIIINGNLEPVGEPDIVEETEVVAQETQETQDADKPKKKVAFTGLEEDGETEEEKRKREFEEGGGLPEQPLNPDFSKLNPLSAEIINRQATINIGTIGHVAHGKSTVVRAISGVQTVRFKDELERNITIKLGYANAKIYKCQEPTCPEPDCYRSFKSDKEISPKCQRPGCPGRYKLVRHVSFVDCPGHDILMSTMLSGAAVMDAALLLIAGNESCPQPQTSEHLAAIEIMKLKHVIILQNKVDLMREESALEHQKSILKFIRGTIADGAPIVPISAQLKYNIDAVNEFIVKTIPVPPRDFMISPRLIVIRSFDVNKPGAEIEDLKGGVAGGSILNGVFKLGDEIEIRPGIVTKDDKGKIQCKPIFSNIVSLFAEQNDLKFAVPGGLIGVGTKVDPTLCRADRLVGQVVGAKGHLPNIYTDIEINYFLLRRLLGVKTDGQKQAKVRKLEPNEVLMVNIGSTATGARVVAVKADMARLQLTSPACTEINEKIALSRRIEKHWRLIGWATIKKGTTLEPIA

[2] = molecular target: T2, Mkk2 (Saccharomyces cerevisiae) (UniProt P32491)
T2 sequence (looked up): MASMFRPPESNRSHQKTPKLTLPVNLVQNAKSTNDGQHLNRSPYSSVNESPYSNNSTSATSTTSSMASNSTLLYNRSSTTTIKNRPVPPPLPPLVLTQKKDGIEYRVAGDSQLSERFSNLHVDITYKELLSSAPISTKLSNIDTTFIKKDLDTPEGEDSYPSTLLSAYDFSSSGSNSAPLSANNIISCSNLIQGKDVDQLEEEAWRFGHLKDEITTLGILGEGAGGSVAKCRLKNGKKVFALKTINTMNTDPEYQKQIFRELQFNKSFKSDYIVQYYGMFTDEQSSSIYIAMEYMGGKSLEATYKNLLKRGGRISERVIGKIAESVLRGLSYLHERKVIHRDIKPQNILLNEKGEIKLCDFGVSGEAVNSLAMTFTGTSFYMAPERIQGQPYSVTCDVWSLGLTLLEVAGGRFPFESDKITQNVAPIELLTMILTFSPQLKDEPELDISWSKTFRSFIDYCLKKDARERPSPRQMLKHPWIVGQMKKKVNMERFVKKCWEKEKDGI

[3] = molecular target: Gcd11 (Saccharomyces cerevisiae) (UniProt P32481)
[4] = molecular target: T3, Sui3 (Saccharomyces cerevisiae) (UniProt P09064)
T3 sequence (looked up): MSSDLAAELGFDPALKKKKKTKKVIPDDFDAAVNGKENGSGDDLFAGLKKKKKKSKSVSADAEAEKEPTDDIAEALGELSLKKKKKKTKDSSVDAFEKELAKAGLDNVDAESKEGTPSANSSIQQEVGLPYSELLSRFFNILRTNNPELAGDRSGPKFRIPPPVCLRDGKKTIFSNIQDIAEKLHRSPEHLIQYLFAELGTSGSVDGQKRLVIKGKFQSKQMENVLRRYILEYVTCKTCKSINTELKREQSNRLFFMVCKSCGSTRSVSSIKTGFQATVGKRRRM

binding [1]: binds
binding [2]: binds
B1: Slt2 (protein, Saccharomyces cerevisiae, UniProt Q00772 1-484, looked up)
chain: MADKIERHTFKVFNQDFSVDKRFQLIKEIGHGAYGIVCSARFAEAAEDTTVAIKKVTNVFSKTLLCKRSLRELKLLRHFRGHKNITCLYDMDIVFYPDGSINGLYLYEELMECDMHQIIKSGQPLTDAHYQSFTYQILCGLKYIHSADVLHRDLKPGNLLVNADCQLKICDFGLARGYSENPVENSQFLTEYVATRWYRAPEIMLSYQGYTKAIDVWSAGCILAEFLGGKPIFKGKDYVNQLNQILQVLGTPPDETLRRIGSKNVQDYIHQLGFIPKVPFVNLYPNANSQALDLLEQMLAFDPQKRITVDEALEHPYLSIWHDPADEPVCSEKFEFSFESVNDMEDLKQMVIQEVQDFRLFVRQPLLEEQRQLQLQQQQQQQQQQQQQQQQPSDVDNGNAAASEENYPKQMATSNSVAPQQESFGIHSQNLPRHDADFPPRPQESMMEMRPATGNTADIPPQNDNGTLLDLEKELEFGLDRKYF

binding [3]: binds
binding [4]: binds
B2: Sui2 (protein, Saccharomyces cerevisiae, UniProt P20459 1-304, looked up)
chain: MSTSHCRFYENKYPEIDDIVMVNVQQIAEMGAYVKLLEYDNIEGMILLSELSRRRIRSIQKLIRVGKNDVAVVLRVDKEKGYIDLSKRRVSSEDIIKCEEKYQKSKTVHSILRYCAEKFQIPLEELYKTIAWPLSRKFGHAYEAFKLSIIDETVWEGIEPPSKDVLDELKNYISKRLTPQAVKIRADVEVSCFSYEGIDAIKDALKSAEDMSTEQMQVKVKLVAAPLYVLTTQALDKQKGIEQLESAIEKITEVITKYGGVCNITMPPKAVTATEDAELQALLESKELDNRSDSEDDEDESDDE

— patent US20030162221A1
